Measured values as given in PubChem BioAssay AID1347423 (Functional Genomics Laboratory (NCATS/FGL), 2020).
About 210 (0.4%) of roughly 52,000 sequences were called active.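 Rule for the calls: active = gene whose silencing raises cell survival under the drug, median off-target-corrected z-score across its silencing RNAs 2 or more; inactive = the rest.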 The list shows a part of the results.

Test: Resistance to Poly (ADP-Ribose) Polymerase inhibitor: Gene Identification via Genome-wide siRNA Screen
Conditions: mouse BRCA2 R2336H ES cells, olaparib, CellTiter-Glo viability; active compounds read high
Procedure, shortened: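 Mouse BRCA2 R2336H ES cells were reverse-transfected with siRNA (20 nM final), treated at 48 h with 500 nM olaparib, and read by CellTiter-Glo after 72 h. Scores: MAD-based z per siRNA, median per gene, seed off-target correction.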
In the case of GGAAUGGAACACAAAUAGCTT against Kdelr2, the z-score is reported as inactive: 0.105.
For GGAGUUCACUGUGCUGAUGTT against Cxcl7, the z-score was inactive: -1.02.
For GGUAUUAUGACCAGAUUAUTT against Plxnb3, the z-score was inactive: -1.86.
For GGAGAUUCGGAAAAUGUGUTT against D8Wsu151e, the z-score was inactive: 0.552.
For GUUUAACUACAACAAUGAGTT against Dcpp, the z-score was inactive: 0.548.
In the case of CCACCACAAGUUUCCAUGUTT against Rnf17, the z-score is reported as inactive: -0.286.
With CCCAUGCUAGAGAGAAUUCTT against D10628 the z-score was inactive: 0.896.
In the case of GCUUCUCAGAAGAUGUACUTT against Rgs16, the z-score is reported as inactive: -1.7.
For GGCAUUUAAAUCUGUGUGUTT against Slc39a6, the z-score was inactive: 0.328.
For “CCAAGUCUUUGCCUACGUGTT against 1700022L09Rik”, the z-score was inactive: 2.71.
In the case of “GGUUUUUGUCCCAUCUUGGTT against D730019B10Rik”, the z-score is reported as inactive: -0.207.
With GCUUACCUGAGAUGUGCUCTT against Dbx1 the z-score was inactive: -0.36.
With “GGGUAAAAUUAUUCUCAGGTT against 1600012H06Rik” the z-score was inactive: 0.492.
With GGUGGUUCACAAAUACUGUTT against Agtpbp1 the z-score was inactive: -0.765.
With GGAAGAUGAAAGAAGAGAGTT against Punc the z-score was inactive: -0.519.
With “GCACCUUCCAUCGGAAUGCTT against 1110034B05Rik” the z-score was inactive: -0.469.
With GCCAUCACGAAAAUUCUAGTT against Tufm the z-score was inactive: 0.859.
With GGAAGAGUGGGAGAAAAUATT against H2-M9 the z-score was inactive: -2.66.
In the case of “CCCAGAUACCUGGAAAACGTT against 5730507A09Rik”, the z-score is reported as inactive: -0.133.
With GGUUGAAGGCCAAUUCAAATT against Lrrc10 the z-score was inactive: 0.194.
For GGGCAACAUUUUUCAGUGCTT against Prox1, the z-score was inactive: -0.785.
For GAGAGAGCAGAGCUUGAGATT against Angptl6, the z-score was inactive: -1.12.
With CCAACCAAAGAUGAAUUGUTT against Usp19 the z-score was inactive: 0.727.
For GGCAUGGUGAAUGAAAUUGTT against Calml3, the z-score was inactive: -0.596.
With “CCCAAAUCCUACGAAGCCUTT against 1200003E16Rik” the z-score was inactive: 1.59.
With CCGAUUCACUGUCCCUUUATT against AI132487 the z-score was inactive: 0.58.
In the case of GGAUUGACCUCCAAGGACATT against Osgep, the z-score is reported as inactive: -2.19.
For GGGUUUGGAUGCAGCAUCUTT against Gata1, the z-score was inactive: 0.598.
For CCCAAACUAUGUUCUUGAATT against Tll2, the z-score was inactive: 1.03.
In the case of CCUACUACCUCUGUCAACATT against Nme4, the z-score is reported as inactive: 1.46.
With GAUUGUCACCACCUUAAGATT against Chchd5 the z-score was inactive: 0.272.
In the case of “GCUGAUAGGCACGAGUAUCTT against 4930430F08Rik”, the z-score is reported as inactive: 0.602.
In the case of GGAGGAACAAUCAUCUAUATT against Ripk2, the z-score is reported as inactive: 0.105.
With GGGAACCUUGCUAUUUGGATT against Gucy2c the z-score was inactive: 1.73.
For GCUUGAAGUCUCUUGCUGGTT against Nhlrc2, the z-score was inactive: 0.484.
In the case of GCGGCAGUAGCCAGAAAAATT against Rhox7, the z-score is reported as inactive: -3.29.
With GCGAUGAGUAUAUCAAGUUTT against Hdac2 the z-score was inactive: -0.83.
With GCUCUAACGUAUGAUGCCATT against Nde1 the z-score was inactive: -0.344.
With GGAGCAGGUAAACAUGUCUTT against Fpr-rs7 the z-score was inactive: 0.964.
With GGAAUAUAUCUGCUUUAUCTT against Gphb5 the z-score was inactive: 0.414.
With GGCACCCGAGUAGGUCAAATT against Carhsp1 the z-score was inactive: -0.139.
In the case of GGAGAAAGGUGGUACCAAGTT against Deaf1, the z-score is reported as inactive: -2.56.
In the case of GGAGAUGUAUGCCGCUUAUTT against Lcat, the z-score is reported as inactive: 1.93.
For CCAGCUUCCUCGUAAGUGATT against Hsf4, the z-score was inactive: -2.13.
In the case of GGACCUUGGUAAUAGAAAGTT against Pdzk4, the z-score is reported as inactive: -0.541.
For GGACAUGGUCUCCAAACUATT against Pgd, the z-score was inactive: -2.75.
For “GGUUCAGAAGUCUAUGUCUTT against 2700038N03Rik”, the z-score was inactive: 1.14.
In the case of GGAUCUUACAGUUUCGUCUTT against Oas3, the z-score is reported as inactive: 0.216.
With GGGUUAUAAGAAAAAGUACTT against Krt2-20 the z-score was inactive: -0.0269.
In the case of GGCUGUCCGUACCUAUAAATT against Cpb1, the z-score is reported as inactive: 3.31.
In the case of “GAGUCUUGUUUGAAAGAACTT against F730035P03Rik”, the z-score is reported as inactive: -0.683.
For GGAGCUUUCAGCCUAAUUUTT against Prkcdbp, the z-score was inactive: -0.275.
In the case of “UUUCGAGCUGAUCCAUGAGTT against 1700021K02Rik”, the z-score is reported as inactive: 2.26.
In the case of “GGAGACUCCAUACCAGUGUTT against 2810439M05Rik”, the z-score is reported as inactive: 1.01.
With GGAAAGGCUGUUUCCUACCTT against Atox1 the z-score was inactive: 2.62.
In the case of “GGCAUUAAUCCAGUCUUGGTT against 8430417A20Rik”, the z-score is reported as inactive: 0.71.
In the case of GGGUUACAGAAUCUGUUAATT against Nup153, the z-score is reported as inactive: 1.16.
With GGGUGAAGAGAGAUGAAAATT against Krt2-20 the z-score was inactive: 0.28.
For GGAGAAUGAACAGACAGAGTT against Slc39a14, the z-score was inactive: -0.694.
With GGAGUCCUUUAAGAUUAUATT against Pex13 the z-score was inactive: -0.29.
In the case of GGAAUAUGACUUCAAGAUGTT against Lmnb2, the z-score is reported as inactive: 0.116.
For “GGGCAUGAAGAUCAAGAAGTT against 4932417D18Rik”, the z-score was inactive: 2.85.
In the case of GGUAAAAGUCGAUGGCCAGTT against Calr3, the z-score is reported as inactive: 0.605.
With GGACAAGGAGGAUUUCUUCTT against Tusc4 the z-score was inactive: -0.361.
With “GGUGUUUGUGAAGGAGCAGTT against 5730593F17Rik” the z-score was inactive: 0.644.
In the case of “GGUGCAAUCCUACAGUUCUTT against 1110008P14Rik”, the z-score is reported as inactive: -2.24.
For CCCAGAAUUGAACUAAAAATT against Mrpl32, the z-score was inactive: 2.35.
With GCUAUUCGUACAUAUGAUUTT against AB041550 the z-score was inactive: 0.739.
In the case of “CGGGUGUGCCGUGUUUGUATT against 3110005G23Rik”, the z-score is reported as inactive: -0.353.
In the case of GCACUUUGUGCUAUAUAAGTT against Mapk14, the z-score is reported as inactive: -1.97.
For GACAAAGUAACAUCUGUAUTT against Olfr1447, the z-score was inactive: -1.15.
For GGAAAAUGUCAAAAUUGGCTT against Rfc4, the z-score was inactive: -0.441.
With AGUAUUCUUUGCUUUCCUUTT against Olfr822 the z-score was inactive: -0.833.
For GGCUACCGUGAAGAUGGAGTT against Fabp6, the z-score was inactive: -0.576.
In the case of CCGUCAAAACAUUACCAUUTT against BC034076, the z-score is reported as inactive: 0.182.
With GGGUGACUUAGAAUUCUGUTT against Diras1 the z-score was inactive: 0.848.
With UGAUAUUUGGUGUAUUCAGTT against Olfr972 the z-score was inactive: 1.05.
In the case of GCUGAAACAUCGGUAUGAGTT against Pla2g4c, the z-score is reported as inactive: 0.762.
For GGUGCUAGUGGAUCAAACGTT against BC051227, the z-score was inactive: 1.65.
With “CCUAGAGCUUUUCAGAAUATT against 2410005K20Rik” the z-score was inactive: -0.874.
With GGUCCUUUGUCUAUAUCAATT against Suv39h1 the z-score was inactive: 4.56.
With CCAAAAAAUCCUAUACUCUTT against Cdh8 the z-score was inactive: 0.896.
For “CCGAGUAAGUUUAACUAAGTT against 9430028I06Rik”, the z-score was inactive: 0.152.
In the case of GGGAAUACAUUUGAGAUGATT against Ptgfrn, the z-score is reported as inactive: -0.0463.
In the case of GGAUGUCUUUUUAAGGUUUTT against Cri1, the z-score is reported as inactive: -0.279.
For GGGAGAAAUACUCUUGUUATT against Apg4a, the z-score was inactive: -0.0377.
For GGGCAGAAGUCGUGUUUCUTT against Dorz1, the z-score was inactive: -1.21.
In the case of GGAAGAUGCCUUUUCCAAGTT against Syt1, the z-score is reported as inactive: -0.477.
For GCGCAUCAGAGUCUCAUAATT against Hivep1, the z-score was inactive: 0.39.
For GGCAUGUGAUCUACCAAUCTT against Ly6g5b, the z-score was inactive: -0.642.
For GGAGCAGAACAUUAUCUUCTT against Tnn, the z-score was inactive: 0.437.
In the case of CCAUUCCUGUCCCUUAAUATT against Tmem55b, the z-score is reported as inactive: -0.0373.
In the case of GGCAAUCGCUUUGAGCCAUTT against Hnrpm, the z-score is reported as inactive: -0.786.
With CCUAUCUAUGACCUCACAUTT against Rorb the z-score was inactive: 0.397.
With CCGAAGACUAGCUAAUUUUTT against Sult1c1 the z-score was inactive: 0.117.
For CCUGAGGUUACAAGACGGUTT against Dll3, the z-score was inactive: 0.0094.
In the case of GCGGCUGAUACACUUUGUATT against Maob, the z-score is reported as inactive: -0.424.
In the case of GGCUCAGAAACAACAGGCUTT against Sh2d3c, the z-score is reported as inactive: 0.745.
With GCAUUAUGGAUUGACCUAUTT against Noto the z-score was inactive: -0.496.
In the case of “GGUAUGUUCAAGAUCAAUATT against 2810013E07Rik”, the z-score is reported as inactive: -1.23.
With “GGAUUACGAGAAACUUGGUTT against 1110025F24Rik” the z-score was inactive: 0.0176.
In the case of “GCACAUUCAACUUUGACCATT against 2410008K03Rik”, the z-score is reported as inactive: 0.851.
In the case of “GCACUACAAAUUUAUACCUTT against 2610101N10Rik”, the z-score is reported as inactive: 1.36.
With CCCACAUAAAAAACAGUUGTT against Pdcd1lg1 the z-score was inactive: -0.44.
